Measured values from patent US20160361250A1, “ACTIVE INGREDIENTS STIMULATING TYPE 2 AND/OR TYPE 3 HUMAN BETA-DEFENSINS AND COSMETIC OR PHARMACEUTICAL COMPOSITIONS CONTAINING SUCH ACTIVE INGREDIENTS” (BASF Beauty Care Solutions France S.A.S., priority 2002, published 2016).
At least one compound was matched to its structure with a doubt left.

Tested on: hBD3
Test: Quantitative RT-PCR of hBD3 expression, 2nd step (dose-effect)
Assay type: cell-based, human
Conditions: 0.005%
Protocol: The actives are then tested on 5 concentrations (from 0.001% to max viability) in quadruplicate on normal human keratinocytes as a monolayer on 96-well culture plates, in a specific medium enriched with calcium and free of serum (CaCl2 1.7 mM) (same conditions as in example 1).
After 16 h, the supernatants are collected and cells are dry frozen at −80° C. after rinsing in PBS.
Total RNA are extracted using a 96-well extraction kit on silica columns and assayed using a 96-well spectrophotometer at 260 and 280 nm. RNA are diluted to 5 ng/μL.
Quantitative RT-PCR in 96 wells on actin, hBD2 and hBD3 is initially carried out on 50 ng of RNA, using a one-step kit containing Sybrgreen, in a fluorescence thermocycler with the same primers as previously (0.5 μM). The amplification program is as follows: 50° C., 30 min; 94° C., 15 min; (94° C., 15 s; 60° C., 30 s; 72° C., 30 s)×50 cycles; 90° C., 1 min; 30° C., 1 min; 50° C. to 95° C. […]
A study of the fusion graphs makes it possible to verify the specificity of amplified products. The fluorescence graph as a function of the number of cycles gives the C(T) value corresponding to the number of cycles needed to obtain initiation of the fluorescence signal. […]
Quantitative RT-PCR makes it possible to obtain a basal value for the defensin expression for untreated controls. The results are therefore expressed as a percentage of the control. […]

With `CC1=C(/C=C/C(C)=C/C=C/C(C)=C/C(=O)O)C(C)(C)CCC1` [Retinoic acid] as the compound, how does the “effect on hBD3 synthesis (in words)” value read?
The value was “weakly stimulates hBD3 synthesis”.
